Experimental data reported in PMC6219483.
These are yes or no findings as the source states them, for the method shown. In cells and extracts the contact can be indirect. Some binding calls cover weakened binding; strength is not graded here.

Amino acid sequences for entries named in this document (tags omitted). Residues count along the entry.
UniProt P11021, residues 19-654: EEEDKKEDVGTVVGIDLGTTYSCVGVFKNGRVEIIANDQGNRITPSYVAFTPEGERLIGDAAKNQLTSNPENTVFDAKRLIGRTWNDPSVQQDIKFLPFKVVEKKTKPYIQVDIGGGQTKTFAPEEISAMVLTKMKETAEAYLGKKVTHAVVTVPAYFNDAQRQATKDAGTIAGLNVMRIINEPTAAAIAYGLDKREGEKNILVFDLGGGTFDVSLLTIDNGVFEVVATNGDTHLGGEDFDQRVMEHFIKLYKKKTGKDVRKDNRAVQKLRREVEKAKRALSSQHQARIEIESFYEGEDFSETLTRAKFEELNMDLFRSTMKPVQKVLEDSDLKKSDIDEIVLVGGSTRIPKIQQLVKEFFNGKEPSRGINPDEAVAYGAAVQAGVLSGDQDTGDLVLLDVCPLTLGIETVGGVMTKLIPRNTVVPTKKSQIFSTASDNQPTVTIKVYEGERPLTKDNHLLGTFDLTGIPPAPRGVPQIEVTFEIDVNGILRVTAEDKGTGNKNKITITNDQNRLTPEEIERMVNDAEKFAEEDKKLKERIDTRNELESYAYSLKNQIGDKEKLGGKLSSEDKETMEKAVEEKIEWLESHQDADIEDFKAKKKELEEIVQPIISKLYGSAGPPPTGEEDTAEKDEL

Target: glucose-regulated protein 78 kDa (GRP78) (human (endogenous in HUVECs)) (UniProt P11021)
Assay: proximity ligation; Duolink in situ red kit mouse/rabbit on HUVECs fixed with 4% PFA after treatment with recombinant ISM (1 μM) for 3 h; ISM against an endogenous protein of the cells; only the binder purified

binding: binds
B1: isthmin (ISM), recombinant (ligand, UniProt A2ATD1 30-454)
chain: SDRQDAAAGNNNLNLESDSTSETSFPLSKEAPEEHQVVHQPFPRQRFPPETGHPSLQRDGPRSFLLDLPNFPDLSKADINGQNPNIQVTIEVVDGPDSEAEKDQHPENKPSWSLPAPDWRAWWQRSLSLARTNSGDQDDKYDSTSDDSNFLSVPRGWDRPAPGHRTFETKEQPEYDSTDGEGDWSLWSVCSVTCGNGNQKRTRSCGYACIATESRTCDRPNCPGIEDTFRTAATEVSLLAGSEEFNATKLFEVDMDSCERWMSCKSEFLKKYMHKVINDLPSCPCSYPTEVAYSTADIFDRIKRKDFRWKDASGPKEKLEIYKPTARYCIRSMLSLESTTLAAQHCCYGDNMQLITRGKGAGTPNLISTEFSAELHYKVDVLPWIICKGDWSRYNEARPPNNGQKCTESPSDEDYIKQFQEAREY
